Results are given in words; binding and its absence hold for the method and conditions named. Some results given as binding are weak or reduced against the parent protein; the word gives no strength.
What was measured:
[1] = biological target: CD47 on human red blood cells (human) (UniProt Q08722); assay: RBC binding assay (FIG. 25)
[2] = biological target: human CD47 on Raji cells (human) (UniProt Q08722); assay: flow cytometry, figure legend of FIG. 21
human CD47-ECD (human) = human CD47-ECD (human) (UniProt Q08722); assay: ELISA, figure legend of FIG. 20
[3] = biological target: CD47 on human red blood cells (human) (UniProt Q08722); assay: RBC binding assay, figure legend of FIG. 25

Sequences of proteins named here, by UniProt entry; tags and fusion partners are left off. A change or cut given only in a name is not applied to a line headed by its entry.
UniProt Q08722: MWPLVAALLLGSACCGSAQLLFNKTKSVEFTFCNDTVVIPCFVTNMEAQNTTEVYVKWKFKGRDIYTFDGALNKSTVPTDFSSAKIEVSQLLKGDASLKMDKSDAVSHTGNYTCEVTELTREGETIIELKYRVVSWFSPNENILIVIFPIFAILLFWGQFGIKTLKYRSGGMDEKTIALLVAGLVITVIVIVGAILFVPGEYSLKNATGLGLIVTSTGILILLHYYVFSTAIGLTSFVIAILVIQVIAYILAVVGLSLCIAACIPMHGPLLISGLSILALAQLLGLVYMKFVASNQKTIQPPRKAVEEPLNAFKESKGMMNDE

Measured: binding

B1: CD47 antibody 34C5 (antibody, V domains shown)
VH: QVQLVQSGAEVKKPGSSVKVSCKASGYTFSSYYMHWVRQAPGQGLEWMGEINPNNARINFNEKFKTRVTLTVDKSTSTAYMELSSLRSEDTAVYYCTRGYYRYGAWFGYWGQGTLVTVSS
VL: DIQMTQSPSSLSASVGDRVTITCRASQDISDYLNWYQQKPGKAPKLLIYYISRLHSGVPSRFSGSGSGTDYTLTISSLQPEDFATYYCQQGHTLPWTFGGGTKVEIK
binds: [1] | [2] | human CD47-ECD (human) | [3]
